The assay addresses Toll-like receptor 2 (bovine (endogenous in BMECs)) (UniProt Q95LA9). The assay can be described thus: co-IP; TLR2 primary antibody and protein A/G agarose on total protein of BMECs; cells co-cultured with M. bovis 39YC, PG45 or HB0801 for 16 h (TLR2/TLR6) or 20 h (TLR2/TLR1), control and LPS groups beside them; Western blot for TLR1 and TLR6. (A western blot detects proteins with antibodies after separation by electrophoresis.)

Protein sequences, listed by entry. Tags and fused reporters are not part of them. Residues count along the entry.
UniProt Q95LA9, residues 21-784: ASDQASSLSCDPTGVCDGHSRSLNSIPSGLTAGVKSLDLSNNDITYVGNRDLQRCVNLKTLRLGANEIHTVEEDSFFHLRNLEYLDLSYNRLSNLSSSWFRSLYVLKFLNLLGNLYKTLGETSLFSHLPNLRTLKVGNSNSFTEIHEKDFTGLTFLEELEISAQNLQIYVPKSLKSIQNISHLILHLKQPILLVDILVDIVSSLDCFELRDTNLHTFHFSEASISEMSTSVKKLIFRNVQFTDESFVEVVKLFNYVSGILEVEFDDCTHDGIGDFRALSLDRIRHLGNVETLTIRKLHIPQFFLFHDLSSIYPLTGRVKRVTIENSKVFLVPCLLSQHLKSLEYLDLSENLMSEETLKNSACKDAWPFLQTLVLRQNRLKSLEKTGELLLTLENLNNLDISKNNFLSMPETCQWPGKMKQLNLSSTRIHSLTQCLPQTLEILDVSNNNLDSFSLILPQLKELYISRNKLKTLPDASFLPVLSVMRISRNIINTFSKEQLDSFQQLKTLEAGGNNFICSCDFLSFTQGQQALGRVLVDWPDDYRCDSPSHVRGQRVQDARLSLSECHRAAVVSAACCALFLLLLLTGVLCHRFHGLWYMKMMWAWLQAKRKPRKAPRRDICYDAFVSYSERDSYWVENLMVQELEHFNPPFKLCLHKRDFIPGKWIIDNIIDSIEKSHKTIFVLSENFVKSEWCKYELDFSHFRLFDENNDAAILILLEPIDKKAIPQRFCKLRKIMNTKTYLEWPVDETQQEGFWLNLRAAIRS

No constants are given. Whether binding was seen depends on the method and setting. Binding seen in cells or lysates may run through a third protein. Some results given as binding are weak or reduced against the parent protein; the word gives no strength.

B1: Toll-like receptor 6 (receptor, UniProt Q704V6 24-793)
chain: TIIQFSDESEFVVDMSKTSLIHVPKDLPPKTKVLDLSQNNISELHLSDISFLSGLRVLRLSHNRIQGLDISIFKFNHDLEYLDLSHNQLQKISCHPITTTLKHLDLSFNDFDALPICKEFGNLTQLNFLGLSATKLQQLDLLPIAHLHLSCILLDLEDYMKENKKESLQILNTKKLHLVFHPNSFFSVQVDISANSLGCLQLTNIKLNDYNCQVLLKFLSGLTGGPTLLNFTLNHVETTWKCLVKVFQFLWPKPIEYLNIYNLTIVESIDEEVFTYYKTTLKALKIEHITNKVFIFSQTALYTVFSEMNILMLTISDTRFIHMLCPQEPSTFKFLNFTQNSFTDSVFQNCDTLARLETLILQKNELKDLFKTSLMTKDMLSLETLDVSWNSLEYDRSNGNCSWVGSIVVLNLSSNALTDSVFRCLPPRIKVLDLHNNRIRSIPKDVTGLETLQELNLASNSLAHLPGCGIFSSLSILIIEHNSISNPSADFFQSCQKIRSLKAGNNPFQCSCELRDFIQSVGQVSSDVVEGWPESYKCDYPESYKGTPLKDFQVSELSCNTALLIITIVVPGLVLAVAVTVLCIYLDLPWYLRMVCQWTQTRRRARNVPLEELQRTLQFHAFISYSEHDSAWVKNELIPNLEKEDIRICLHERNFVAGKSIVENIINCIEKSYKSIFVLSPNFVQSEWCHYELYFAHHNLFHEGSDNLILILLDPIPQYSIPSSYHKLRALMAQRTYLEWPKEKSKHGLFWANLRASINIKLMEKAAEIH
Regarding B1, the binding result is listed as “binds”.

For the origin of these results see article PMC9021453.
